In experiment [1] the target is T1, ornithine decarboxylase antizyme 1 (OAZ1) of Recilia dorsalis, yeast two-hybrid fusion (Recilia dorsalis).
T1 sequence: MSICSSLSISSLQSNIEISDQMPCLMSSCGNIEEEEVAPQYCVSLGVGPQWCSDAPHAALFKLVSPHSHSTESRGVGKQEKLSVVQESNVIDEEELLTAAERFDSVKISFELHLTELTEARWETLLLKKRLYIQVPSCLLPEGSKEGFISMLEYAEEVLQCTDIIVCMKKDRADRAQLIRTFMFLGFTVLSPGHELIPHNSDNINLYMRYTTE
As to the kind of experiment: two-hybrid; Matchmaker Gal4 Two-Hybrid System3 (Clontech), bait plasmid pGBKT7 and prey plasmid pGADT7, yeast strain AH109; growth on DDO and QDO + X-alpha-gal plates, also serially diluted 10^-1 to 10^-4.

The target in experiment [2] is T2, ornithine decarboxylase 1 (ODC1) of Recilia dorsalis, yeast two-hybrid fusion (Recilia dorsalis).
T2 sequence: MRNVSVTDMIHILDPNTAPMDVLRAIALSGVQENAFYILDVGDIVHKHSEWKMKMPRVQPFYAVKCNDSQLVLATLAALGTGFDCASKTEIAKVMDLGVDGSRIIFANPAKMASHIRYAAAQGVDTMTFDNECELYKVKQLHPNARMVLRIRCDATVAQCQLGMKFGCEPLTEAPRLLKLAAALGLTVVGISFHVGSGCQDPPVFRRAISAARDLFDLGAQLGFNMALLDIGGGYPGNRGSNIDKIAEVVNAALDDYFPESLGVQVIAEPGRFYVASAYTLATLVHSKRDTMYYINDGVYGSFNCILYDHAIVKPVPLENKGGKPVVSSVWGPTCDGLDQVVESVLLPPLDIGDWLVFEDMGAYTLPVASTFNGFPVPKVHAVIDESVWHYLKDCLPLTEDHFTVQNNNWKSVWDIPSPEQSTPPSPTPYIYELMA
The experiment is described as above.

For experiment [3], the target named is GST-M (RSMV matrix protein fused with GST) (rice stripe mosaic virus). As to the kind of experiment: pull-down; GST-fused proteins on glutathione-Sepharose beads 4 h at 4 °C, His-fused proteins then added 2 h at 4 °C; western blot with antibodies against GST and His.
The target of experiment [4] is RSMV matrix protein (M) in viruliferous Recilia dorsalis (rice stripe mosaic virus). The experiment in a line: co-IP; RSMV-M-specific IgG on Protein A affinity beads; lysates of 30 viruliferous or nonviruliferous R. dorsalis adults, 2 h at 4 °C; blot with OAZ1- and beta-actin-specific IgG.
In experiment [5] the target is C-terminal ODC-AZ domain of OAZ1 of Recilia dorsalis, yeast two-hybrid fusion (Recilia dorsalis). The experiment in a line: two-hybrid; Matchmaker Gal4 Two-Hybrid System3 (Clontech), bait plasmid pGBKT7 and prey plasmid pGADT7, yeast strain AH109; growth on DDO and QDO + X-alpha-gal plates, also serially diluted 10^-1 to 10^-4.

The text below walks through data of PMC10441986.

Results are given in words; binding and its absence hold for the method and conditions named. For part of these data: Binding can be weak; no strength is given. For part of these data: Tags and fused reporters may be left off the sequences shown. For part of these data: In cells and extracts the contact can be indirect.

Take “P3 protein of rice stripe mosaic virus, yeast two-hybrid fusion”: the binding result in experiment [1] and in experiment [2] was “no binding” each time.

For the molecule “P6 protein of rice stripe mosaic virus, yeast two-hybrid fusion”, the binding result in experiment [1] and in experiment [2] was “no binding” each time.

Regarding “glycoprotein (G) of rice stripe mosaic virus, yeast two-hybrid fusion”, the binding entry in experiment [1] and in experiment [2] was “no binding” throughout.

As for “matrix protein (M) of rice stripe mosaic virus (RSMV), yeast two-hybrid fusion”, the binding entry in experiment [1] is reported as “binds”; in experiment [2], “no binding”.

On to “nucleoprotein (N) of rice stripe mosaic virus, yeast two-hybrid fusion”, for which the binding result in experiment [1] and in experiment [2] was “no binding” each time.

Consider “phosphoprotein (P) of rice stripe mosaic virus, yeast two-hybrid fusion”, for which the binding result in experiment [1] and in experiment [2] was “no binding” in each case.

B1: His-OAZ1 (OAZ1 of Recilia dorsalis fused with His) (protein, UniProt A0A8K1BCU6 1-213)
chain: MSICSSLSISSLQSNIEISDQMPCLMSSCGNIEEEEVAPQYCVSLGVGPQWCSDAPHAALFKLVSPHSHSTESRGVGKQEKLSVVQESNVIDEEELLTAAERFDSVKISFELHLTELTEARWETLLLKKRLYIQVPSCLLPEGSKEGFISMLEYAEEVLQCTDIIVCMKKDRADRAQLIRTFMFLGFTVLSPGHELIPHNSDNINLYMRYTTE
With B1, the binding result in experiment [3] is “binds”.

B2: endogenous OAZ1 of Recilia dorsalis (protein, UniProt A0A8K1BCU6 1-213)
chain: MSICSSLSISSLQSNIEISDQMPCLMSSCGNIEEEEVAPQYCVSLGVGPQWCSDAPHAALFKLVSPHSHSTESRGVGKQEKLSVVQESNVIDEEELLTAAERFDSVKISFELHLTELTEARWETLLLKKRLYIQVPSCLLPEGSKEGFISMLEYAEEVLQCTDIIVCMKKDRADRAQLIRTFMFLGFTVLSPGHELIPHNSDNINLYMRYTTE
In the case of B2, the binding entry in experiment [4] is listed as “binds”.

B3: ornithine decarboxylase 1 (ODC1) of Recilia dorsalis, yeast two-hybrid fusion (enzyme, UniProt A0A8K1F0V5 1-436)
chain: MRNVSVTDMIHILDPNTAPMDVLRAIALSGVQENAFYILDVGDIVHKHSEWKMKMPRVQPFYAVKCNDSQLVLATLAALGTGFDCASKTEIAKVMDLGVDGSRIIFANPAKMASHIRYAAAQGVDTMTFDNECELYKVKQLHPNARMVLRIRCDATVAQCQLGMKFGCEPLTEAPRLLKLAAALGLTVVGISFHVGSGCQDPPVFRRAISAARDLFDLGAQLGFNMALLDIGGGYPGNRGSNIDKIAEVVNAALDDYFPESLGVQVIAEPGRFYVASAYTLATLVHSKRDTMYYINDGVYGSFNCILYDHAIVKPVPLENKGGKPVVSSVWGPTCDGLDQVVESVLLPPLDIGDWLVFEDMGAYTLPVASTFNGFPVPKVHAVIDESVWHYLKDCLPLTEDHFTVQNNNWKSVWDIPSPEQSTPPSPTPYIYELMA
As for B3, the binding entry in experiment [5] is “binds”.
